These results are taken from article PMC10163288.

The other results are listed elsewhere or left out.

To fix the notation:
B1: il10ra_site1_normal_mot_HHH_b2_05797_000000294_0001_1_19_H_._HHH_b2_04237_0001_0000100005_0000002_0 (protein)
chain: SSSSDLEEYVRAARRFAEALLEAGDPEAARRILRLLLEVVEREGNEELEELLRELLERVEGSSSS
B2: il10ra_site1_sap_23_mot_HHH_b1_02896_af2_000000065_0001_1_17_H_._HHH_b2_02550_af2_0001_0000300010_0000002_0_0001_af2pred_0001 (protein)
chain: SSSSSDDAERAIRILLRAAKQIEDEERVKLAIRFAEALAESAGNEELVEELRQILEELRSSSSSS
B3: il10ra_site1_sap_29_mot_HHH_b1_01513_af2_000000021_0001_1_16_H_._HHH_b2_01114_0001_0000200011_0000001_0_0001_af2pred_0001 (protein)
chain: SSSSDIHAEAAFRLFKAALEDAHRRGDEEAARAAALAAELSLEYLGNPELAEQLREIVEELSSSS
B4: il10ra_site1_sap_21_mot_HHH_b2_05111_af2_000000002_0001_42_56_H_._HHH_b1_00330_0001_0000200015_0000001_0_0001 (protein)
chain: SSSSSRYERVKKLLEEVLELQRRGNKEEAEELLEELLKELEEAGNPVMLFSVEHLLRIVRDSSSS
B5: il10ra_site1_sap_19_mot_4271555111f650dfcc09ceace45bed71_0001_1_000000133_0001_37_51_H_._a6dc95095f26d3d149f38d2607f81e7c_0001_af2_0001_0000500022_0000001_0_000 … (protein)
chain: SSSSDEEVEEEVERLLEEAEKIEDEHEWAQLLFEAMRLAYENRNEELAEEIDRVAAEWLNSSSSS
B6: il10ra_site1_normal_mot_HHH_b1_00103_000000293_0001_1_15_H_._HHH_b2_03403_0001_0000100001_0000003_0_af2pred_0001 (protein)
chain: SSSSSSSKERKEVLKLLEKALRIDDPEEAREVVQEAVELAEEAGDEHLLKLARELLRQLSSSSSS
B7: il10ra_site1_sap_15_mot_HHH_b1_05757_000000171_0001_42_57_H_._HHH_b1_03576_0001_0000800028_0000001_0_0001 (protein)
chain: SSSSSSDREAFELLEKAAEISREDPEEAEEILREAREIAEEAGNRLLAMQIEFMLKRISSSSSSS
B8: il10ra_site1_normal_mot_HHH_b2_07006_000000108_0001_1_19_H_._HHH_b1_07927_af2_0001_0000200003_0000001_0 (protein)
chain: SSSSSNDEVYELLRELIELVKEGDEEQFERLVEEIRKLIEELGNEVLRHILEFLERLFHSSSSSS
B9: il10ra_site1_normal_mot_HHH_b2_05813_000000266_0001_1_19_H_._ems_3hC_1310_0001_af2_0001_0000100001_0000002_0_af2pred_0001 (protein)
chain: SETEELIILLARAAAEAEKRNDEEAARLLLRAAVLLHRALLRNDEELQERANEFAKKVIEEAESS
B10: il10ra_site1_sap_25_mot_HHH_b1_05609_af2_000000134_0001_1_18_H_._HHH_b2_05552_0001_0000400043_0000002_0_0001 (protein)
chain: SSSSSSSEYREAYKLIEEAFKIEDEEEVRRLVEEALELAEEGNNWVALMAIRHALKVLESSSSSS
B11: il10ra_site1_normal_mot_HHH_b1_01082_af2_000000031_0001_3_19_H_._ems_3hC_559_0001_0000100003_0000002_0 (protein)
chain: SEELYEFLKEVIEELKEAWENNDPEKVEEIAEEAREVLEKLAKTENLREHAERQVEFLARRLKSS
B12: il10ra_site1_normal_mot_HHH_b1_06057_000000129_0001_22_38_H_._HHH_b1_06187_0001_0000100002_0000001_0 (protein)
chain: SSSSTLEESVKFALRVARQQREEGDPEAARELLEKLLELLKEAGDEELFEEVERLLEELEKSSSS
B13: il10ra_site1_sap_25_mot_HHH_b2_08143_000000031_0001_38_55_H_._HHH_b1_08602_af2_0001_0000800026_0000001_0_0001 (protein)
chain: SSSSSDVEEIFELIEEILRLIKDGDEEEARELLEELRELIEKAGSWVFRYSLEVLERELNSSSSS
B14: il10ra_site1_normal_mot_HHH_b2_00033_000000036_0001_41_54_H_._HHH_b2_05176_af2_0002_0000400015_0000001_0 (protein)
chain: SSSSSEEEEELKELLEKAKELIENGNPQEALEVLAEAVRLALKLGDQEAFQQIWELIKRLGSSSS
B15: il10ra_site1_normal_mot_HHH_b1_06789_af2_000000041_0001_1_20_H_._HHH_b2_05831_af2_0001_0000600036_0000002_0_af2pred_0001 (protein)
chain: SSSSSSSHEIDVRIALKVAKLTDDEEMIKRALEIAERTARIGNDPELEQLVEEVKEELESSSSSS
B16: il10ra_site1_sap_13_mot_8756ee2cf497b5429c717dfc0c0bcfd6_0001_000000186_0001_1_13_H_._HHH_b2_05518_af2_0001_0000600027_0000001_0_0001 (protein)
chain: SSSSDLEELARAAVRLIEQAIEWGDEERAKFALLALEMAAEETNDPELRELLEELEKLLRGSSSS
B17: il10ra_site1_normal_mot_HHH_b1_06994_000000193_0001_40_55_H_._HHH_b2_05823_0001_0000200021_0000001_1 (protein)
chain: SSSSSEVEELIRATARLARQAREAGDDRTVEFLLLAMEILLRENNDEEAEEILEELRQELSSSSS
B18: il10ra_site1_normal_mot_HHH_b2_06602_000000226_0001_1_16_H_._ems_3hM_3525_af2_0001_0000500014_0000001_0_af2pred_0001 (protein)
chain: SSSEEEIYRLLVKLYRIALKRNDEELEEIVKEISIIVAELLQNGDEERAKKVAEEAEEIVEEKSS
B19: il10ra_site1_normal_mot_HHH_b1_02997_000000220_0001_39_52_H_._HHH_b2_07229_0001_0000200012_0000001_0_af2pred_0001 (protein)
chain: SSSSSEEKREALELLREALELRRQGNPEEAEELVREALELAREAGDPELEFLAEFLLRQLSSSSS

The experiment concerns the target il10ra, Q13651. The experiment is described as follows: yeast display titration.
Take B1: the “apparent Kd” value is “inactive: no binding seen”.
The result for B2 reads “inactive: no binding seen”; that for B3, “inactive: no binding seen”; that for B4, “inactive: no binding seen”.
Then B5, with “inactive: no binding seen”; and B6, with “inactive: no binding seen”.
Then B7, with “inactive: no binding seen”.
B8: the “apparent Kd” value is “inactive: no binding seen”.
As for B9, the “apparent Kd” value was “inactive: no binding seen”.
As for B10, the “apparent Kd” value is “inactive: no binding seen”.
The result for B11 reads “inactive: no binding seen”.
Then B12, with “inactive: no binding seen”; and B13, with “inactive: no binding seen”.
Then B14, with “inactive: no binding seen”; and B15, with “inactive: no binding seen”; and B16, with “inactive: no binding seen”.
For B17, the “apparent Kd” value is “inactive: no binding seen”.
For the molecule B18, the “apparent Kd” value is “inactive: no binding seen”.
As for B19, the “apparent Kd” value is “inactive: no binding seen”.
